From the supplement of paper PMC4862054
Small differences around the control level are noise.

What was measured:
Assay in all cases: normalised response (% of control), CellTox Green; higher = less cell death (100 = DMSO, 0 = benzethonium chloride kill control)
Settings in all cases: incubation time: 72 h
[1] = test system: HCC1599
Procedure: (§1)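 DSRT, 72 h incubation, CellTox Green / CellTiter-Glo readout. Signal is normalised to DMSO and benzethonium chloride controls. Value is the normalised response at the lowest tested concentration.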

[2] = test system: HCC1143
Procedure: as §1

[3] = test system: MFM-223
Procedure: as §1

[4] = test system: MCF-10A
Procedure: as §1

[5] = test system: CAL-51
Procedure: as §1

[6] = test system: CAL-148
Procedure: as §1

[7] = test system: HCC1937
Procedure: as §1

[8] = test system: MDA-MB-453
Procedure: as §1

[9] = test system: MDA-MB-468
Procedure: as §1

[10] = test system: DU-4475
Procedure: as §1

[11] = test system: CAL-120
Procedure: as §1

[12] = test system: CAL-85-1
Procedure: as §1

[13] = test system: MDA-MB-231
Procedure: as §1

[14] = test system: MDA-MB-436
Procedure: as §1

[15] = test system: BT-549
Procedure: as §1

[16] = test system: BT-474
Procedure: as §1

[17] = test system: HDQ-P1
Procedure: as §1

[18] = test system: Hs578T
Procedure: as §1

## CCN(CC)CCCC(C)Nc1ccnc2cc(Cl)ccc12 (configuration not stated) [Chloroquine] (10 nM)
[1]
  normalised response: 118%
[2]
  normalised response: 84.7%
[3]
  normalised response: 104%
[4]
  normalised response: 109%
[5]
  normalised response: 114%
[6]
  normalised response: 104%
[7]
  normalised response: 119%
[8]
  normalised response: 106%
[9]
  normalised response: 54.6%
[10]
  normalised response: 113%
[11]
  normalised response: 102%
[12]
  normalised response: 105%
[13]
  normalised response: 118%
[14]
  normalised response: 94.6%
[15]
  normalised response: 91.6%
[16]
  normalised response: 96.3%
[17]
  normalised response: 98.1%

## N.N.[Cl][Pt][Cl] [Cisplatin] (0.1 nM)
[1]
  normalised response: 114%
[2]
  normalised response: 83.4%
[3]
  normalised response: 104%
[4]
  normalised response: 110%
[5]
  normalised response: 117%
[6]
  normalised response: 98.9%
[7]
  normalised response: 116%
[8]
  normalised response: 104%
[9]
  normalised response: 99.8%
[10]
  normalised response: 114%
[11]
  normalised response: 102%
[12]
  normalised response: 95.3%
[18]
  normalised response: 91.5%
[13]
  normalised response: 131%
[14]
  normalised response: 86%
[15]
  normalised response: 105%
[16]
  normalised response: 98.2%
[17]
  normalised response: 105%

## Nc1nc(Cl)nc2c1ncn2[C@@H]1O[C@H](CO)[C@@H](O)[C@@H]1F [Clofarabine] (1 nM)
[1]
  normalised response: 121%
[2]
  normalised response: 132%
[3]
  normalised response: 95.5%
[4]
  normalised response: 112%
[5]
  normalised response: 96.2%
[6]
  normalised response: 102%
[7]
  normalised response: 94.4%
[8]
  normalised response: 81.3%
[9]
  normalised response: 102%
[10]
  normalised response: 114%
[11]
  normalised response: 109%
[12]
  normalised response: 101%
[18]
  normalised response: 88%
[13]
  normalised response: 117%
[14]
  normalised response: 70.8%
[15]
  normalised response: 80.9%
[16]
  normalised response: 100%
[17]
  normalised response: 97.5%

## C#Cc1cccc(Nc2ncnc3cc(OCCOC)c(OCCOC)cc23)c1 [Erlotinib] (1 nM)
[1]
  normalised response: 110%
[2]
  normalised response: 116%
[3]
  normalised response: 102%
[4]
  normalised response: 103%
[5]
  normalised response: 112%
[6]
  normalised response: 82.9%
[7]
  normalised response: 115%
[8]
  normalised response: 107%
[9]
  normalised response: 84.2%
[10]
  normalised response: 107%
[11]
  normalised response: 102%
[12]
  normalised response: 103%
[18]
  normalised response: 80.3%
[13]
  normalised response: 107%
[14]
  normalised response: 88.5%
[15]
  normalised response: 61.5%
[16]
  normalised response: 100%
[17]
  normalised response: 99.4%

## O=S(=O)(c1cccc2cnccc12)N1CCCNCC1 [Fasudil] (5 nM)
[1]
  normalised response: 90.4%
[2]
  normalised response: 81.9%
[3]
  normalised response: 101%
[4]
  normalised response: 97.6%
[5]
  normalised response: 86.5%
[6]
  normalised response: 92.7%
[7]
  normalised response: 104%
[8]
  normalised response: 107%
[9]
  normalised response: 90.4%
[10]
  normalised response: 99.9%
[11]
  normalised response: 103%
[12]
  normalised response: 102%
[13]
  normalised response: 102%
[14]
  normalised response: 91.5%
[15]
  normalised response: 97.2%
[16]
  normalised response: 99.6%
[17]
  normalised response: 93.7%

## NC1(c2ccc(-c3nc4ccn5c(=O)[nH]nc5c4cc3-c3ccccc3)cc2)CCC1 [MK-2206] (0.1 nM)
[1]
  normalised response: 106%
[2]
  normalised response: 135%
[3]
  normalised response: 105%
[4]
  normalised response: 105%
[5]
  normalised response: 112%
[6]
  normalised response: 96%
[7]
  normalised response: 115%
[8]
  normalised response: 110%
[9]
  normalised response: 93.9%
[10]
  normalised response: 103%
[11]
  normalised response: 103%
[12]
  normalised response: 104%
[18]
  normalised response: 117%
[13]
  normalised response: 101%
[14]
  normalised response: 93.1%
[15]
  normalised response: 88.1%
[16]
  normalised response: 102%
[17]
  normalised response: 102%

## CC[C@@H]1C(=O)OC[C@@H]1Cc1cncn1C [Pilocarpine] (4 nM)
[1]
  normalised response: 106%
[2]
  normalised response: 111%
[3]
  normalised response: 98.4%
[4]
  normalised response: 81.8%
[5]
  normalised response: 118%
[6]
  normalised response: 93.2%
[7]
  normalised response: 103%
[8]
  normalised response: 98.2%
[9]
  normalised response: 110%
[10]
  normalised response: 95.4%
[11]
  normalised response: 94.4%
[12]
  normalised response: 100%
[18]
  normalised response: 113%
[13]
  normalised response: 110%
[14]
  normalised response: 105%
[15]
  normalised response: 94.7%
[16]
  normalised response: 97.5%
[17]
  normalised response: 87.2%

## N[C@@H](CSC(c1ccccc1)(c1ccccc1)c1ccccc1)C(=O)O [S-trityl-L-cysteine] (4 nM)
[1]
  normalised response: 97.6%
[2]
  normalised response: 97.5%
[3]
  normalised response: 94.4%
[4]
  normalised response: 51.3%
[5]
  normalised response: 105%
[6]
  normalised response: 103%
[7]
  normalised response: 88.9%
[8]
  normalised response: 105%
[9]
  normalised response: 104%
[10]
  normalised response: 98.9%
[11]
  normalised response: 102%
[12]
  normalised response: 92.4%
[18]
  normalised response: 72.2%
[13]
  normalised response: 97.3%
[14]
  normalised response: 106%
[15]
  normalised response: 99.4%
[16]
  normalised response: 98.5%
[17]
  normalised response: 86%
